The values that follow are results of earlier work, collected in patent publication US20030096014A1, “Solid pharmaceutical compositions for oral administration comprising itraconazole” (priority 2001, published 2003).

On to `CCC(C)n1ncn(-c2ccc(N3CCN(c4ccc(OCC5COC(Cn6cncn6)(c6ccc(Cl)cc6Cl)O5)cc4)CC3)cc2)c1=O` (stereo not shown) [itraconazole, Itraconazole], for which the solubility in water result is given as “only very sparingly soluble”.
